Measurements: PMC7073468, “Small RNA‐binding protein RapZ mediates cell envelope precursor sensing and signaling in Escherichia coli” (The EMBO Journal, 2020)
Results are given in words; binding and its absence hold for the method and conditions named. A result given as binding can be weak or reduced; the word gives no strength. Sequences can lack the tags named with a protein.

Target: RapZ-CTD (C-terminal globular domain of RapZ), BACTH fusion (Escherichia coli)
Test: two-hybrid; bacterial adenylate cyclase-based two-hybrid (BACTH); T18 and T25 fusions from pUT18C and pKT25 derivatives in E. coli reporter strain RH785 (MG1655::cyaA derivative) or BTH101, also in a derivative lacking the endogenous qseEGF operon; grown at 28°C with 1 mM IPTG to stationary phase; read-out β-galactosidase activity

B1: QseF, BACTH fusion (T18 or T25) (protein, UniProt P0AFU4 1-444)
chain: MSHKPAHLLLVDDDPGLLKLLGLRLTSEGYSVVTAESGAEGLRVLNREKVDLVISDLRMDEMDGMQLFAEIQKVQPGMPVIILTAHGSIPDAVAATQQGVFSFLTKPVDKDALYQAIDDALEQSAPATDERWREAIVTRSPLMLRLLEQARLVAQSDVSVLINGQSGTGKEIFAQAIHNASPRNSKPFIAINCGALPEQLLESELFGHARGAFTGAVSNREGLFQAAEGGTLFLDEIGDMPAPLQVKLLRVLQERKVRPLGSNRDIDINVRIISATHRDLPKAMARGEFREDLYYRLNVVSLKIPALAERTEDIPLLANHLLRQAAERHKPFVRAFSTDAMKRLMTASWPGNVRQLVNVIEQCVALTSSPVISDALVEQALEGENTALPTFVEARNQFELNYLRKLLQITKGNVTHAARMAGRNRTEFYKLLSRHELDANDFKE
- binding: binds weakly

B2: QseE, BACTH fusion (T18 or T25) (protein, UniProt P52101 1-475)
chain: MKRWPVFPRSLRQLVMLAFLLILLPLLVLAWQAWQSLNALSDQAALVNRTTLIDARRSEAMTNAALEMERSYRQYCVLDDPTLAKVYQSQRKRYSEMLDAHAGVLPDDKLYQALRQDLHNLAQLQCNNSGPDAAAAARLEAFASANTEMVQATRTVVFSRGQQLQREIAERGQYFGWQSLVLFLVSLVMVLLFTRMIIGPVKNIERMINRLGEGRSLGNSVSFSGPSELRSVGQRILWLSERLSWLESQRHQFLRHLSHELKTPLASMREGTELLADQVVGPLTPEQKEVVSILDSSSRNLQKLIEQLLDYNRKQADSAVELENVELAPLVETVVSAHSLPARAKMMHTDVDLKATACLAEPMLLMSVLDNLYSNAVHYGAESGNICLRSSLHGARVYIDVINTGTPIPQEERAMIFEPFFQGSHQRKGAVKGSGLGLSIARDCIRRMQGELYLVDESGQDVCFRIELPSSKNTK
- binding: binds weakly
